From the supplement of paper PMC5949888
Most values lie at the floor of the assay. Slopes are relative: functional sequences can read slightly below zero.

Tested on: Saccharomyces cerevisiae PS128 hsf1 delta, HSF1(1-493) fusion
Experiment: growth estimate (transactivation domain function in HSF1 fusion, heat-shock survival) (a.u. (slope of normalised read count over time)); higher = stronger growth at 37°C, i.e. more transactivation activity
Settings: library: random library

| Substance | growth estimate |
| --- | --- |
| NSYGGVRPQSH | < -0.25 |
| NSYLGAQPAKARAASGTTPN | < -0.25 |
| NTDSGWTAALR | < -0.25 |
| NTEALAR | < -0.25 |
| NTESHG | < -0.25 |
| NTGLHTVSVDRVQSKYSVSQ | < -0.25 |
| NTGYR | < -0.25 |
| NTHHSRSHSSPGTRGCRANS | < -0.25 |
| NTLEHG | < -0.25 |
| NTLSR | < -0.25 |
| NTMEFDMLQLFMGRSQNRNY | < -0.25 |
| NTPIDFPSAWTCTLITQRV | < -0.25 |
| NTQGMRGTFRKFREARGLA | < -0.25 |
| NTQKP | < -0.25 |
| NTRSCLTGGSGENCGNSPSA | < -0.25 |
| NTRYMTLEGVRI | -0.0907 |
| NTSPRYEISHQGAGGIDGIT | < -0.25 |
| NTTLAEEPGG | < -0.25 |
| NTV | < -0.25 |
| NTVRGGRGLVPGWSNVGLEM | < -0.25 |
| NTYGVR | < -0.25 |
| NVAAFAWVKNGWLMRFPAAE | < -0.25 |
| NVAGKKLGNSTAEIHHRIRQ | < -0.25 |
| NVCGLIATNIPVNRSVSVAP | < -0.25 |
| NVDRPQT | < -0.25 |

7 entries drawn at random from those above:

| Substance | growth estimate |
| --- | --- |
| NTLSR | < -0.25 |
| NTQKP | < -0.25 |
| NTV | < -0.25 |
| NSYGGVRPQSH | < -0.25 |
| NTMEFDMLQLFMGRSQNRNY | < -0.25 |
| NVAGKKLGNSTAEIHHRIRQ | < -0.25 |
| NTGLHTVSVDRVQSKYSVSQ | < -0.25 |

The list goes on.

| Substance | growth estimate |
| --- | --- |
| NVDSGTEGLCYCVARKNQLW | < -0.25 |
| NVGQPGAAFSLGPYVRGTPT | < -0.25 |
| NVGVSVFGCN | < -0.25 |
| NVHS | < -0.25 |
| NVIAGS | < -0.25 |
| NVIEDYVILYAGR | < -0.25 |
| NVKLVKRSPMQRARIEPSRF | < -0.25 |
| NVLQPNRGYQHCV | < -0.25 |
| NVLRGTARSCCKSYLRSERA | < -0.25 |
| NVMGEQ | < -0.25 |
| NVRATAIVAVREHRSLAK | < -0.25 |
| NVRGMAFRARASSGPGCSYT | < -0.25 |
| NVRMLTSSEKGLELTVAL | < -0.25 |
| NVSAYQKTSISAAPGWLAPR | < -0.25 |
| NVSLRPKSAEGTASHARLRS | < -0.25 |
| NVSSGQRESVVAGTGIACIS | < -0.25 |
| NVSSPASYLGKCLSSKTVGV | < -0.25 |
| NVTEGDLLRKCRGNCAFSKA | < -0.25 |
| NVTRDLRGGARRS | < -0.25 |
| NVTTVGKGWRLNTGGFSGVA | < -0.25 |
| NVVASSNCVREVVYVG | < -0.25 |
| NWGHPCHRYIFVTDPL | < -0.25 |
| NWLKYSALGYG | < -0.25 |
| NWLTGV | < -0.25 |
| NWPSTTCEWLSCLEGSIPIS | < -0.25 |

| Substance | growth estimate |
| --- | --- |
| NWVILSEQRARRPRDHLLQY | < -0.25 |
| NYCSWSLERLS | < -0.25 |
| NYECLDGIRGTFKPRRGS | < -0.25 |
| NYG | < -0.25 |
| NYGDAVFLALYRLHSLGRIS | < -0.25 |
| NYLEAKEQNGALVGPQVSSR | < -0.25 |
| NYLHFPGLRMVGAWPLFVTG | < -0.25 |
| NYSLFGRRGNMWDSSHGTRQ | < -0.25 |
| NYSVTVVLLIPAIAAAQCRN | < -0.25 |
| NYTLKL | < -0.25 |
| NYVSRVVSHYNGNPGSRYSP | < -0.25 |
| NYWRE | -0.199 |
| PAAVLLVTPTVSVDVLAVFS | < -0.25 |
| PACDCSVNKHYLLMGGWLLR | -0.246 |
| PACGHGDLSFNQFSHGYDGR | < -0.25 |
| PADACTLNANAQTAFECR | < -0.25 |
| PADIRVIRFKHITVMPLCS | < -0.25 |
| PAEVLPTRKLNISRLVLVGS | < -0.25 |
| PAFLSLLNLQHENTK | < -0.25 |
| PAFPWYSLRLAGFLYAALPS | < -0.25 |
| PAGE | < -0.25 |
| PAGHLGTSPGFSEGGTSWIV | < -0.25 |
| PAGHYIPFKNES | < -0.25 |
| PAGLVSE | < -0.25 |
| PAHLRLRLRRAEVVSLHPN | < -0.25 |

| Substance | growth estimate |
| --- | --- |
| PAIDKAMGRFPASIPTACSQ | < -0.25 |
| PAIGAVAQVV | < -0.25 |
| PAKDRKIFGESCGHASSVVL | < -0.25 |
| PALATRVQDSQRASVGCA | < -0.25 |
| PALGGAQ | < -0.25 |
| PALQWMCYRETTSTQTCWML | < -0.25 |
| PAMRPLHEEISTHATTRPQL | < -0.25 |
| PAMYSAWS | < -0.25 |
| PAPICAVLLSVMATNGSHLR | < -0.25 |
| PAPLTYVVGSDHETVRLMY | < -0.25 |
| PARGEHVCRATH | < -0.25 |
| PASESNGEARRG | < -0.25 |
| PASH | -0.245 |
| PASKYTVVQQDCERVGGTQT | < -0.25 |
| PATFVTSCRDRRGRQPSYNC | < -0.25 |
| PATHDGTIIVLRFMILIGSP | -0.25 |
| PATSITFTLRSGSGD | < -0.25 |
| PAVFVECERRPELLRIGLST | < -0.25 |
| PAVHHPRTSGGVAVVPKDVQ | < -0.25 |
| PAVM | < -0.25 |
| PAVRRRRETVLH | < -0.25 |
| PAWGDIGYMGVFPKLGANTG | < -0.25 |
| PAYDTALYRFAL | < -0.25 |
| PCA | < -0.25 |
| PCAHGTFSPLLLKKSRSGCY | < -0.25 |

| Substance | growth estimate |
| --- | --- |
| PCASPWLVGVRISIVDHVEH | < -0.25 |
| PCEKSGFSLGTSWCSWVVGL | < -0.25 |
| PCERCLSVHPRWACSRSPGM | -0.203 |
| PCGGSVSERSGSGVRYLVGF | < -0.25 |
| PCLND | < -0.25 |
| PCLPALPSFVMALQRHQALC | < -0.25 |
| PCPAITVRILVEKGVVRNQG | < -0.25 |
| PCPTVPTHKRPPVTWRLFRN | < -0.25 |
| PCQALPGRSMTVQLGCDPGS | < -0.25 |
| PCRSLLGWRAIPSLLRSRLE | < -0.25 |
| PCSALYTSSRVSQEINFFNP | < -0.25 |
| PCTVLMTF | < -0.25 |
| PCVARFHGR | < -0.25 |
| PCWTSDMSRG | < -0.25 |
| PCYCVMRFKRARTSWL | -0.248 |
| PDAPCSRGCQDVVGSLFHLA | < -0.25 |
| PDCGVRRLRRYANENRD | < -0.25 |
| PDDSGWGRKDR | < -0.25 |
| PDGKGC | < -0.25 |
| PDGSRRHACSPPQSCSYRPL | < -0.25 |
| PDGYYPLSI | < -0.25 |
| PDKRSLSSCGYLFGYGGSLD | < -0.25 |
| PDLIYRES | < -0.25 |
| PDLSVITLEMRSQSLGTLRP | < -0.25 |
| PDNGGSGTRASSTPFYAFCL | -0.232 |

| Substance | growth estimate |
| --- | --- |
| PDPLPEAVYRDGVIPRVRDA | < -0.25 |
| PDQNDV | < -0.25 |
| PDRYTETRLGGCIPIIENH | < -0.25 |
| PDSLNLFDFSRPWTALSPWW | < -0.25 |
| PDVAIRVEGIPALLTSLTQG | < -0.25 |
| PDVLCTDPAHQALYTVKYSR | < -0.25 |
| PEAFGVGHSMAHVWNHPLVS | < -0.25 |
| PEALTGSESWV | -0.246 |
| PEALWV | < -0.25 |
| PEEDF | < -0.25 |
| PEGGCLALALIRCGLSLLRH | < -0.25 |
| PEGGHTTQLRIVRGLLTGVR | < -0.25 |
| PEGVFSWRPR | < -0.25 |
| PEHCPRQSFSLELVSSPYGR | < -0.25 |
| PEILCSCLGPKRLATTVLAL | < -0.25 |
| PEKSESCLNGLVRNRDRSEE | -0.228 |
| PELAGLAVSCPTGWSREALR | < -0.25 |
| PELVLGGLT | < -0.25 |
| PEMFCTVCCTLDRYNARKIT | < -0.25 |
| PENLLDQVRLLSCSLSEDLE | < -0.25 |
| PESG | < -0.25 |
| PESLLKTAGAPLTCGLYVSG | < -0.25 |
| PESLVCSNALRTP | < -0.25 |
| PESVRNARSAVDNDFGFAAV | -0.232 |
| PETGSAIGCSVSGQITFVAQ | < -0.25 |

| Substance | growth estimate |
| --- | --- |
| PETVRRSDGYRSQN | < -0.25 |
| PEWFP | < -0.25 |
| PEYDWQTPDRDSGGSQDLVR | < -0.25 |
| PFAETR | < -0.25 |
| PFGAYCCGLTGSPRRRVRSH | -0.242 |
| PFGE | < -0.25 |
| PFGRLWR | < -0.25 |
| PFHLAVAGCRRSSQYFLQLC | < -0.25 |
| PFITCKIWWVHWCPTLSSRS | < -0.25 |
| PFMNARVGGSQCRDVKCLLR | < -0.25 |
| PFPGGSGRGN | < -0.25 |
| PFPIVFRCCCLTMRHLHFWQ | -0.207 |
| PFRFP | < -0.25 |
| PFRG | < -0.25 |
| PFRLGRGSKSTSSHVERT | < -0.25 |
| PFRTRERIPKAGPCRFQMAV | < -0.25 |
| PFSAPTGI | < -0.25 |
| PFVATCIKSNRVQMNKVTYL | -0.237 |
| PGADTARRFANGLVSPCLMC | < -0.25 |
| PGAIRLREPRSSHAC | < -0.25 |
| PGASSFSDAGRC | < -0.25 |
| PGCFSRPHRRLHMFAWQGRH | -0.246 |
| PGCG | < -0.25 |
| PGDLVG | < -0.25 |
| PGDYPAEMPSPYLPQLQPAL | < -0.25 |

| Substance | growth estimate |
| --- | --- |
| PGEVAPLYQGRALRFVT | < -0.25 |
| PGFGVGQVSCGSCCKLFAV | < -0.25 |
| PGFMVTEPGGSVTWLEAPSL | < -0.25 |
| PGFPRRHTLPFPELLVG | < -0.25 |
| PGFTVYDRQPNWYLSYTPTA | < -0.25 |
| PGGIIRSLGSCNWHGMVPRM | < -0.25 |
| PGGLKSAVSSLDNRLW | < -0.25 |
| PGGNHRRDAVPSCSRTAPWI | < -0.25 |
| PGHSVKTKAEAVTGSEVRQS | < -0.25 |
| PGISLWALSV | < -0.25 |
| PGIY | -0.243 |
| PGKLSGKGQQYL | < -0.25 |
| PGKRVLMDRCVLPRAFKGWQ | < -0.25 |
| PGLFGRRGVKGCHATSQRSN | < -0.25 |
| PGLHSMDLVARNYGFRATAD | < -0.25 |
| PGLKSGGS | < -0.25 |
| PGLRGWFSRGNYVCRVQFFP | < -0.25 |
| PGLRREVCLTPTPIRESWFK | < -0.25 |
| PGLTKDSQSEVVPPTGGPGL | < -0.25 |
| PGMPAIIYSVGMLEVFDLYR | < -0.25 |
